{
  "sequences": {"note": "By UniProt entry, the sequences of proteins in these tests, tags left out. Residues count along the entry.", "UniProt P02791, 2-175 limits assumed": "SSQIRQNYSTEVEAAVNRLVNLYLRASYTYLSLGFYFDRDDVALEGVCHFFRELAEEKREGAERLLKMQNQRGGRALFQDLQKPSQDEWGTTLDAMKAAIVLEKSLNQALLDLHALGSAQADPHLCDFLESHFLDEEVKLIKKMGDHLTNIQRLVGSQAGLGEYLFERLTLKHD"},
  "source": "PubChem BioAssay AID489008",
  "about": "(National Center for Advancing Translational Sciences (NCATS), 2010)",
  "note": "The shares of active, inactive and inconclusive entries below differ from those in the screen. Potencies of inconclusive entries are doubtful fits and often do not repeat. Active and inactive are the calls of the source. Calls follow the shape of the dose curve; as a rule, active = well fitted inhibition curve with a large enough effect; inconclusive = small, poorly fitted or top-dose-only effect; inactive = flat fitted curve, though single readings scatter. Potency is read from the fitted curve at half-maximal effect.",
  "data": [
    {"target": "Ferritin light chain (Equus caballus) (UniProt P02791)", "test": "Confirmation Assay for Identification of Novel General Anesthetics; also: nearly all actives have a fitted effect of over 40% in size", "settings": "apoferritin 1-aminoanthracene fluorescence displacement", "method_in_brief": "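Horse apoferritin (10 uM) pre-loaded with 1-AMA (50% saturated, PBS) exposed to compounds 10 min at room temperature; loss of 1-AMA fluorescence (380/535 nm) scaled between free and bound ligand, curves fitted with Hill equation.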", "values": [
      {"compound": "COc1ccccc1/C=C/C(=O)OCC(=O)NCCC1=CCCCC1", "Potency": "inconclusive: 22.4 µM [inhibitor, partial curve]"},
      {"compound": "Cc1cc(N2CC(C(=O)Nc3nccs3)CC2=O)ccc1C(C)C", "note": "(stereo not drawn)", "Potency": "active: 14.1 µM"},
      {"compound": "CC1Cc2ccccc2N1C(=O)CSC1=NCCS1", "note": "(stereo not drawn)", "Potency": "active: 10 µM"}
    ]}
  ]
}
